The list shows a part of the results. The main result of the screen is listed elsewhere. These columns were measured beside it and carry no call. Compounds called inactive in the main read-out are mostly missing here. Potencies come from curve fits of mixed quality, noted in brackets.
Assay: Cell signaling CRE-BLA (Fsk stim)
Details: CHO CRE-bla reporter (cAMP response element driving beta-lactamase), forskolin EC10, beta-lactamase ratio; measured here: 460 nm blue channel
Summary of the method: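 Reporter-gene assay: CHO cells with beta-lactamase behind cAMP responsive elements, co-treated with compound and EC10 NKH 477 for 3 hours at 37 degrees Celsius. Activity came from the 460/530 nm CCF4 emission ratio.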

Row | Compound | AC50
1 | COc1ccc(-n2c(=O)c(-c3ccc(Cl)cc3)nc3cncnc32)cc1 | 15.8 µM [rising, partial curve]
2 | CC(=O)Oc1ccc(N2C(=O)CC(N3CCOCC3)C2=O)cc1 (configuration not stated) | 0.158 µM [rising, full curve]
3 | COc1ccc(C(C)=O)cc1COC(=O)c1cccc(N(C)C)c1 | 10 µM [rising, single point]
4 | Cc1cc(C)nc(NS(=O)(=O)c2ccc(NC(=O)C3CC(=O)N(c4ccccc4)C3)cc2)n1 (configuration not stated) | 0.501 µM [rising, partial curve]
5 | CSC(=O)CC(=O)NC(=O)c1ccccc1 | 1 µM [falling, full curve]
6 | Cc1c(C#N)c2ncn(Cc3ccccc3)c(=O)c2n1-c1ccccc1 | 15.8 µM [rising, partial curve]
7 | O=C(Nc1ccc(S(=O)(=O)N2CCCc3ccccc32)cc1)C1CCCO1 (configuration not stated) | 20 µM [rising, partial curve, poor fit]
8 | O=C(NCCCN1CCOCC1)c1cccs1 | 15.8 µM [falling, partial curve]
9 | COc1ccc(-c2cc3nc(C4CCN(C(=O)OC(C)(C)C)CC4)c(C(=O)O)cn3n2)cc1 | 3.98 µM [rising, full curve]
10 | Cc1ccc(-n2ncc3c(=O)[nH]c(SCC(=O)N4CCN(c5ccccc5)CC4)nc32)cc1 | 25.1 µM [falling, single point]
11 | CCOc1ccc(Cc2nc(C)c(CC(=O)N3CCCCC3)c(=O)[nH]2)cc1 | 0.398 µM [falling, partial curve]
12 | Cc1cc(=O)[nH]c(SCn2nnc3ccccc3c2=O)n1 | 12.6 µM [rising, single point]
13 | COC(=O)c1ccccc1NC(=O)c1ccccc1NS(C)(=O)=O | 10 µM [rising, partial curve]
14 | CCOC(=O)C1=C(C)NC2=C(C(=O)c3ccccc32)C1c1cccnc1 (configuration not stated) | 0.631 µM [rising, full curve]
15 | CC1(C)CC(=O)c2sc(N3CCCCC3)nc2C1 | 2.51 µM [falling, full curve]
16 | COC(=O)c1ccc(NC(=O)CSc2nnc(-c3ccncc3)n2N)cc1 | 2 µM [falling, full curve]
17 | O=C(c1ccco1)N1CCC(c2nc(-c3ccc(F)cc3)no2)CC1 | 31.6 µM [falling, single point]
18 | CCC1(c2ccccc2)NC(=O)N(CC(=O)Nc2ccc3c(c2)OCO3)C1=O (configuration not stated) | 3.16 µM [falling, partial curve, poor fit]
19 | COCCCNC(=O)CSc1nc2ccc(N3CCOCC3)cc2c(=O)n1CCc1ccccc1 | 0.00316 µM [rising, full curve, poor fit]
20 | COc1ccc(-c2noc(-c3ccccc3C(=O)Nc3cccnc3)n2)cc1 | 3.16 µM [falling, single point]
21 | CCCc1noc(-c2ccc(-c3ccccc3)cc2)n1 | 0.0251 µM [falling, full curve, poor fit]
22 | COc1cccc(-c2ccc3ncnc(NCc4cccs4)c3c2)c1 | 15.8 µM [falling, single point]
23 | c1ccc(-c2csc3nnc(SCc4ccc5c(c4)OCCO5)n23)cc1 | 7.94 µM [rising, partial curve]

4 entries from above, comma-delimited:
Row,Compound,AC50
3,COc1ccc(C(C)=O)cc1COC(=O)c1cccc(N(C)C)c1,"10 µM [rising, single point]"
4,Cc1cc(C)nc(NS(=O)(=O)c2ccc(NC(=O)C3CC(=O)N(c4ccccc4)C3)cc2)n1 (configuration not stated),"0.501 µM [rising, partial curve]"
5,CSC(=O)CC(=O)NC(=O)c1ccccc1,"1 µM [falling, full curve]"
6,Cc1c(C#N)c2ncn(Cc3ccccc3)c(=O)c2n1-c1ccccc1,"15.8 µM [rising, partial curve]"

Additional structures:

Row | Compound | AC50
24 | Cn1c(=O)c2c(nc(CN3CCC(C(N)=O)CC3)n2Cc2c(F)cccc2Cl)n(C)c1=O | 10 µM [rising, partial curve]
25 | COc1ccc(C(C)=O)cc1CSc1nc2ccccc2o1 | 6.31 µM [rising, partial curve]
26 | Cc1ccc(C)c(C(=O)c2c(C)nc3sccn23)c1 | 15.8 µM [rising, single point]
27 | COCCn1c(=O)c(-c2ccc(Cl)cc2)nc2cnc(N(C)C)nc21 | 15.8 µM [rising, partial curve]
28 | CO[C@@]12C[C@@H](COC(=O)c3cncc(Br)c3)CN(C)[C@H]1Cc1cn(C)c3cccc2c13 | 31.6 µM [falling, single point]
29 | CCOc1ccc(C(=O)N(CN2CCCC2=O)c2ccccc2)cc1 | 0.0158 µM [falling, full curve, poor fit]
30 | N#Cc1ccccc1NC(=O)c1ccccc1OCC(=O)NCc1ccco1 | 12.6 µM [falling, single point]
31 | CCOc1ccc(NC(=O)CSc2nnc(-c3ccccn3)n2N)cc1 | 3.98 µM [falling, full curve, poor fit]
32 | Cc1nc(N2CCC3(CC2)OCCO3)c2nnn(Cc3ccccc3F)c2n1 | 0.126 µM [falling, full curve]
33 | Cc1ccccc1Cc1c(C)nc2c(C(=O)NCc3ccco3)cnn2c1C | 1.58 µM [rising, partial curve]
34 | Cc1cnc(N)c2c(=O)oc3ccccc3c12 | 12.6 µM [rising, partial curve]
35 | CCN1C(=O)c2ccccc2S(=O)c2ccc(C(=O)NCc3ccccn3)cc21 (configuration not stated) | 12.6 µM [rising, single point]
36 | COC(=O)c1ccccc1NC(=O)CSc1nc2ccccc2c(=O)[nH]1 | 1 µM [rising, full curve]
37 | COC(=O)Cc1c(C)c2ccc(OC(=O)c3ccco3)cc2oc1=O | 12.6 µM [rising, partial curve]
38 | O=C(Nc1nccs1)c1ccc(COc2ccc(Cl)cc2)o1 | 12.6 µM [rising, single point]
39 | O=C(NCCO)c1ccc2c(c1)S(=O)(=O)c1ccccc1C2=O | 12.6 µM [rising, single point]
40 | COc1cc(C(=O)Nc2nc3ccccc3[nH]2)cc(OC)c1OC | 2 µM [rising, single point]
41 | COCCNC(=O)c1cc2c(-c3ccccc3F)nn(C)c2s1 | 6.31 µM [rising, partial curve]
42 | COc1cc(NC(=O)c2ccc3c(=O)n(Cc4ccco4)c(=S)[nH]c3c2)cc(OC)c1OC | 0.501 µM [falling, partial curve]
43 | CCNc1nc(NC(C)(C)C)nc(SC(C(C)=O)C(C)=O)n1 | 12.6 µM [rising, partial curve]
44 | O=C(Cn1nnc(-c2ccccc2F)n1)Nc1cccc2ncccc12 | 0.00398 µM [falling, full curve, poor fit]
45 | O=C(Nc1ccccc1C(=O)OCC(=O)N1CCc2ccccc2C1)c1ccco1 | 12.6 µM [rising, single point]
46 | CN1CCN(C2=C(Cl)C(=O)N(c3ccc(Cl)c(Cl)c3)C2=O)CC1 | 12.6 µM [falling, partial curve]

Two consecutive entries out of the list so far:
Row | Compound | AC50
37 | COC(=O)Cc1c(C)c2ccc(OC(=O)c3ccco3)cc2oc1=O | 12.6 µM [rising, partial curve]
38 | O=C(Nc1nccs1)c1ccc(COc2ccc(Cl)cc2)o1 | 12.6 µM [rising, single point]

Next results:

Row | Compound | AC50
47 | O=C(Cn1nnc(-c2ccccc2NC(=O)C2CC2)n1)NC1CCCCC1 | 15.8 µM [falling, partial curve]
48 | CCOc1ccc(OCC)c(Nc2cc(C)nc3ncnn23)c1 | 10 µM [rising, partial curve]
49 | CCC(C)NC(=O)Cn1c(=O)n(-c2ccccc2)c(=O)c2ccc(C(=O)NCc3ccco3)cc21 (configuration not stated) | 5.01 µM [rising, single point]
50 | O=C(CN1CCN(Cc2ccccc2)CC1)c1c[nH]c2ccccc12 | 12.6 µM [falling, partial curve]
51 | COc1nc(NCc2ccc(Cl)cc2)nc(OC)n1 | 0.00316 µM [falling, full curve, poor fit]
52 | CCOC(=O)c1sc2c(c1C)C(c1cccs1)C1=C(CCCC1=O)N2 (configuration not stated) | 6.31 µM [rising, partial curve]
53 | COCCCN1C(=O)C(O)=C(C(=O)c2ccco2)C1c1ccccc1 (configuration not stated) | 3.98 µM [falling, single point]
54 | CCN(CC)CCSc1nc(O)c(C(C)C)c(=O)[nH]1 | 5.01 µM [rising, single point]
55 | CCN1CCN(c2nc(SC)nc3sc4c(c23)CC(C)(C)OC4)CC1 | 31.6 µM [falling, single point]
56 | O=C(Cn1c(=O)oc2ccccc21)c1ccccc1 | 5.01 µM [falling, single point]
57 | COc1cccc(NC(=O)N(Cc2cc3cc(C)cc(C)c3[nH]c2=O)CC2COCCO2)c1 (configuration not stated) | 5.01 µM [falling, single point]
58 | Cc1ccccc1-c1nc(CS(=O)CC(=O)NCCN2CCN(Cc3ccccc3)CC2)c(C)o1 (configuration not stated) | 0.00794 µM [falling, full curve, poor fit]
59 | Cc1cccc(C(=O)Nc2ccccc2C(=O)OCc2c(C)noc2C)c1 | 12.6 µM [rising, partial curve]
60 | Nc1nc(CN2CCN(c3cccc(Cl)c3)CC2)nc(N2CCCc3ccccc32)n1 | 15.8 µM [falling, single point]
61 | CCNc1nc(OCCNS(=O)(=O)c2cc(C)ccc2C)nc(N(C)C)n1 | 10 µM [rising, single point]
62 | Cc1ccc2nc(CSc3nnc(-c4ccco4)n3-c3ccccc3)cc(=O)n2c1 | 10 µM [rising, partial curve]
63 | COc1cccc(/C=N/n2c(SC)nnc2-c2ccccc2)c1OC | 3.16 µM [rising, full curve]
64 | Cn1nnnc1SCC(=O)N1CCN(Cc2ccccc2)CC1 | 12.6 µM [rising, single point]
65 | COc1cc(C(=O)Nc2nnc(-c3sccc3C)s2)cc(OC)c1OC | 5.01 µM [falling, partial curve]
66 | CCOC(=O)CN=C1CC(C)(C)CC2=C1Sc1ncnc(N(C)C)c1N2 | 20 µM [rising, single point]
67 | COC(=O)c1c(-c2ccncc2)csc1NC(=O)c1ccoc1C | 0.0316 µM [rising, single point]

Source: PubChem BioAssay AID662 (National Center for Advancing Translational Sciences (NCATS), 2007)
